Source: PubChem BioAssay AID493014 (National Center for Advancing Translational Sciences (NCATS), 2011)
The list shows a part of the results. Further columns of the screen follow, without active or inactive calls. Most of these compounds were active or inconclusive in the main read-out, so they are no random draw. Potencies come from curve fits of mixed quality, noted in brackets.

Experiment: qHTS Assay to Find Inhibitors of Chronic Active B-Cell Receptor Signaling
Details: ABC-DLBCL IkBa-CBG/CBR reporter, luminescence ratio (green luciferase fused to IkBa over red control in TMD8 lymphoma cells), 4 h
Procedure, shortened: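 Compounds up to 46 uM were incubated four hours with TMD8 cells whose green CBG68 luciferase is fused to IkappaBalpha; red CBR luminescence normalised the signal, and concentration-effect curves were fitted to fusion, red and ratio data.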

[1] = measured here: CBR red luminescence, cell number
[2] = measured here: IkBa-CBG green luminescence

Row | SMILES | AC50 [1] | AC50 [2]
1 | Cc1nc(N2CCOCC2)nc2c1CCCC2 | 25.9 µM [rising, single point] | –
2 | NC(=O)C1CCN(C(c2ccccc2Cl)c2nnnn2CC2CCCO2)CC1 (centres undefined) | 2.82 µM [rising, partial curve, poor fit] | –
3 | O=C(NCc1ccccn1)C(=O)NCC1OCCN1S(=O)(=O)c1ccc(Cl)cc1 (centres undefined) | 10 µM [rising, partial curve, poor fit] | –
4 | Cc1ccc(N=Nc2c(O)[nH]c3ccc(F)cc23)cc1 | 2 µM [rising, partial curve] | –
5 | CCOc1cc(C(=O)OCC(=O)c2cc(C)n(CC3CCCO3)c2C)ccc1OCC(=O)N1CCOCC1 (centres undefined) | 0.1 µM [rising, full curve, poor fit] | –
6 | Nc1nc2c(s1)CCc1c-2cnn1-c1ccccc1 | 0.501 µM [rising, full curve] | –
7 | COc1c(Cl)cnn(-c2ccc(Cl)c(Cl)c2)c1=O | 12.6 µM [falling, single point] | –
8 | CCOC(=O)c1cccc(NC(=O)C2CCCN2S(=O)(=O)c2cccc3cccnc23)c1 (centres undefined) | 2.31 µM [rising, full curve, poor fit] | –
9 | c1ccc(Oc2nc(Oc3ccccc3)nc(N3CCOCC3)n2)cc1 | 9.2 µM [rising, partial curve] | –
10 | Cc1csc(NC(=O)c2c(O)c3c(n(CC(C)C)c2=O)CCCC3)n1 | 20.6 µM [falling, partial curve, poor fit] | –
11 | COc1cc2nc(NC(=O)c3ccccc3)[nH]c(=O)c2cc1OC | 0.092 µM [falling, full curve] | –
12 | O=[N+]([O-])c1ccc(NNC(=S)Nc2ccccc2)cc1 | 0.103 µM [falling, full curve, poor fit] | –
13 | CCCC1=Nc2cc(C(=O)NCc3ccco3)ccc2Sc2ccccc21 | 18.4 µM [rising, single point] | 23.1 µM [falling, single point]
14 | CSc1ncc(Cl)c(C(=O)Nc2ccc(S(=O)(=O)Nc3nccc(C)n3)cc2)n1 | 15.8 µM [falling, single point] | –
15 | CCCCN(C)CCCNC(=O)CN1N=C(c2ccc(OC)cc2)CCC1=O | 35.5 µM [falling, partial curve, poor fit] | –
16 | Fc1cc(F)cc(NC(=S)N2CCN(c3ncccn3)CC2)c1 | 35.5 µM [rising, single point] | –
17 | CC(=O)c1c(C)n([O-])c2ccccc2[n+]1=O | 0.00461 µM [rising, full curve, poor fit] | –
18 | O=C(NCCN1CCN(c2cccc(Cl)c2)CC1)c1ccc(CSc2nc3ccncc3[nH]2)cc1 | 20 µM [falling, partial curve] | –
19 | Cc1ccc(C)c(-n2cc(CNCCCn3cccn3)c(-c3ccccc3)n2)c1 | 35.5 µM [falling, single point] | –
20 | O=C(CCCN1C(=O)/C(=C\c2ccccc2)SC1=S)N1CCOCC1 | 5.8 µM [falling, partial curve] | –
21 | CC(CCc1ccccc1)NC(=O)C1CCN(S(=O)(=O)c2cnc[nH]2)CC1 (centres undefined) | 5.8 µM [falling, full curve, poor fit] | –
22 | COc1ccc(C(=O)NC(=S)NCc2ccc(-c3nc4ccccc4o3)cc2)cc1OC | 0.92 µM [rising, full curve, poor fit] | –

Row | SMILES | AC50 [1] | AC50 [2]
23 | Cc1scc(C(=O)NNC(=S)NC(C)c2ccccc2)c1C (centres undefined) | 1.16 µM [rising, full curve] | 25.9 µM [falling, partial curve, poor fit]
24 | O=C(CSc1ccccn1)N1CCOCC1 | 29.1 µM [rising, single point] | –
25 | CCCCCO | 29.1 µM [rising, single point] | –
26 | CC(=O)Nc1ccc(C(=O)N/N=C/c2ccncc2)cc1 | 1.78 µM [falling, full curve, poor fit] | –
27 | CC1Oc2ccccc2N(Cc2ccccc2Cl)C1=O (centres undefined) | 25.9 µM [rising, single point] | –
28 | C/C(=N\NC(=O)c1ccc(NS(=O)(=O)c2cccs2)cc1)c1ccc(Cl)cc1 | 20.6 µM [falling, partial curve] | –
29 | O=C(Nc1ccc2nsnc2c1)c1ccc2c(c1)OCO2 | 0.326 µM [falling, full curve] | –
30 | Cc1ccc(S(=O)(=O)NC2CCCc3ccccc32)cc1C (centres undefined) | 1.84 µM [falling, partial curve, poor fit] | –
31 | O=C(NCCN1CCCC1)c1ccc(Cn2c(=S)[nH]c3cc4c(cc3c2=O)OCO4)cc1 | 35.5 µM [falling, partial curve, poor fit] | –
32 | CC(C)(C)C(=O)NC(c1ccccc1)c1c(O)ccc2ccccc12 (centres undefined) | 31.6 µM [rising, single point] | –
33 | CSCCOC(=O)C1=C(C)Nc2ccc(C)cc2S1 | 0.0517 µM [rising, full curve, poor fit] | –
34 | CCc1c(C(C)O)oc2ccc3c(C)cc(=O)oc3c12 (centres undefined) | 25.1 µM [rising, partial curve, poor fit] | –
35 | Cc1ccc(C(=O)c2cc3ccccc3o2)cc1[N+](=O)[O-] | 3.16 µM [rising, single point] | –
36 | C=CCNC(=O)c1onc(CSc2cc(C)ccc2C)c1C(=O)O | 10 µM [falling, partial curve] | –
37 | CCc1ccccc1NC(=O)CNC(=O)c1cc(C2CC2)nn1-c1ccccc1 | 29.1 µM [falling, single point] | –
38 | Oc1ccc(/C=N/Nc2ncc(Br)cn2)c(O)c1 | 32.6 µM [falling, single point] | –
39 | CCc1nnc(NC2=NCCC2)s1 | 16.4 µM [falling, partial curve] | –
40 | CC(C)CN1C=C2C(=O)C(C)(OC(=O)C3CCCC3)C(=O)C=C2C=C1c1ccsc1 (centres undefined) | 35.5 µM [rising, single point] | –
41 | O=C(CCN1CCc2ccccc2C1)Nc1ccccc1F | 5.8 µM [falling, partial curve] | –
42 | O=C(Nc1cccc(S(=O)(=O)Nc2ccc(Cl)cc2)c1)c1ccc2c(c1)OCCO2 | 23.1 µM [falling, partial curve] | 13 µM [rising, partial curve, poor fit]
43 | CCOc1ccc(Cn2nnc(C(=O)NCc3ccc(OC)cc3)c2N)cc1 | 32.6 µM [rising, single point] | –
44 | Nc1nnc(COc2ccc(Br)cc2Br)s1 | 1.58 µM [rising, partial curve, poor fit] | –

Row | SMILES | AC50 [1] | AC50 [2]
45 | COc1ccc(-c2cn(-c3ccccc3)c(=S)[nH]2)cc1OC | 22.4 µM [rising, partial curve, poor fit] | –
46 | Cc1ccc(S(=O)(=O)N2CCN(C(=O)N(c3ccccc3)c3ccccc3)CC2)cc1 | 4.61 µM [falling, single point] | –
47 | COCC(C)NC(C(=O)Nc1ccc(C)c(Cl)c1)c1ccccc1 (centres undefined) | 2.91 µM [falling, full curve, poor fit] | –
48 | O=C1NC(=Nc2ccccc2)S/C1=C\c1cccs1 | 1.58 µM [falling, full curve] | –
49 | CC(=O)C1=C(O)C(=O)N(c2ccc(Br)cn2)C1c1ccccc1F (centres undefined) | 17.8 µM [falling, single point] | –
50 | COC(=O)c1ccc(NC(=O)Nc2ccc(F)c(Cl)c2)cc1 | 20.6 µM [falling, partial curve, poor fit] | –
51 | COc1cccc(OC(=O)c2cc3ccccc3oc2=O)c1 | 2.51 µM [rising, partial curve, poor fit] | –
52 | CCO/N=C/C(=O)Nc1ccc(F)cc1F | 10 µM [falling, partial curve] | –
53 | CCCNC(=O)Nc1ccc(C(F)(F)F)cc1 | 7.08 µM [rising, partial curve, poor fit] | –
54 | O=C(Nc1nccs1)c1cc2sccc2n1Cc1ccc(Cl)cc1 | 29.1 µM [rising, partial curve, poor fit] | –
55 | N#C/C(=C/c1ccncc1)c1nc2ccccc2c(=O)[nH]1 | 15.8 µM [falling, partial curve] | –
56 | COc1ccc(Cl)cc1NC(=O)CC(=O)Nc1cc(Cl)ccc1OC | 11.2 µM [rising, partial curve, poor fit] | –
57 | N/C(=N\OC(=O)CC1CCCCC1)c1ccncc1 | 14.1 µM [rising, single point] | –
58 | CCSc1nnc(NC(=O)C2CC(=O)N(Cc3ccccc3)C2)s1 (centres undefined) | 11.2 µM [falling, single point] | –
59 | CSc1cc(/C=N/O)c(SC)s1 | 1.64 µM [rising, partial curve, poor fit] | –
60 | CCc1cc2c(=O)[nH]c(CC(N)=O)nc2s1 | 15.8 µM [rising, partial curve, poor fit] | –
61 | CCOC(=O)N1CCN(C(=O)C2CCN(c3ncnc4c3sc3cccc(F)c34)CC2)CC1 | 11.2 µM [falling, partial curve] | –
62 | COc1ccc(-c2nnc(SCC(=O)Oc3ccc(C)cc3)o2)cc1 | 20.6 µM [falling, partial curve, poor fit] | –
63 | COc1ccc(-c2ccc(Nc3ccc(C(=O)N4CCOCC4)cc3)nn2)cc1OC | 18.4 µM [falling, single point] | –
64 | O=C(Nc1cccc(S(=O)(=O)N2CCCCC2)c1)c1ccc2c(c1)OCO2 | 23.1 µM [falling, single point] | –
65 | C/C(=N\NC(=O)c1nn(C)c(C)c1Br)c1ccc(NC(=O)c2ccoc2C)cc1 | 16.4 µM [falling, single point] | –
66 | COc1ccc(OC)c(S(=O)(=O)Nc2cccnc2)c1 | 20.6 µM [falling, single point] | –

An excerpt of these results, comma-delimited.
Row,SMILES,AC50 [1],AC50 [2]
50,COC(=O)c1ccc(NC(=O)Nc2ccc(F)c(Cl)c2)cc1,"20.6 µM [falling, partial curve, poor fit]",–
52,CCO/N=C/C(=O)Nc1ccc(F)cc1F,"10 µM [falling, partial curve]",–
56,COc1ccc(Cl)cc1NC(=O)CC(=O)Nc1cc(Cl)ccc1OC,"11.2 µM [rising, partial curve, poor fit]",–
57,N/C(=N\OC(=O)CC1CCCCC1)c1ccncc1,"14.1 µM [rising, single point]",–
